Measured values: article PMC3544915

Target: T1, CaHxk1 tagged with the 6xHis-FLAG epitope sequence, expressed under the ADH1 promoter (Candida albicans) (UniProt Q59RW5)
T1 sequence: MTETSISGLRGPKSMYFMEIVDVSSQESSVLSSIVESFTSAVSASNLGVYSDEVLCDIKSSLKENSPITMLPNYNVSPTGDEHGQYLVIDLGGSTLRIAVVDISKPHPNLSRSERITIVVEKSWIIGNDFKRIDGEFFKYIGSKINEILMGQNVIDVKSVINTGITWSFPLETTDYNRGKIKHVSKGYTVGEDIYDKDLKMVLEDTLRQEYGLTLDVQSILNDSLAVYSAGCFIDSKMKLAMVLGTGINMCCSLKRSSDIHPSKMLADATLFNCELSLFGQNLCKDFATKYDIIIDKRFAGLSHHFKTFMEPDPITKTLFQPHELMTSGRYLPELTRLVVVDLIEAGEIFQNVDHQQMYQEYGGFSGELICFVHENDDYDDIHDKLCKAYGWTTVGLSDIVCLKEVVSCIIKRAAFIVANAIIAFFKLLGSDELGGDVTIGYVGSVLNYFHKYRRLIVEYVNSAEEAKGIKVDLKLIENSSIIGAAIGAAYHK
Test: affinity purification with mass spectrometry; two-step (tandem) affinity purification of 6xHis-FLAG Hxk1 from lysate of Spider-induced cells: anti-FLAG M2 agarose overnight at 4°C, FLAG peptide elution, then Ni-NTA agarose 2 hrs at 4°C, 300 mM imidazole elution; NP-40 buffer (50 mM NaH2PO4 pH 8.0, 150 mM NaCl, 1% Nonidet P-40); SDS-PAGE, silver staining, bands identified by mass spectrometry

In the case of “C.albicans Acs1 (Acetyl co-A Synthase) (Candida albicans (endogenous in CAI4)) (enzyme)”, the binding is reported as “binds”.

These are yes or no findings as the source states them, for the method shown. In cells and extracts the contact can be indirect. These calls come from enrichment with a bait or labelling near it, and not all partners need be listed. Tags and fused reporters may be left off the sequences shown.
